# In PubChem BioAssay AID493014 (National Center for Advancing Translational Sciences (NCATS), 2011):
# The campaign covered roughly 340,000 compounds. About 170 (0.05%) were called active. Inconclusive results, whose numbers are uncertain, are shown with a selection of clear calls. Calls follow the shape of the dose curve; as a rule, active = well fitted inhibition curve with a large enough effect in the signal ratio, with a control signal flat (not every such curve was filed as active); inconclusive = small, poorly fitted or top-dose-only effect, or effect the other way, or a change in a side signal; inactive = flat fitted curve, though single readings scatter; the % refers to the signal ratio. A potency beside an inconclusive call is a rough fit, not a confirmed value.
# Assay: qHTS Assay to Find Inhibitors of Chronic Active B-Cell Receptor Signaling;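 as to activity change, negative = inhibition: plate controls were basal doxycycline-induced cells for no effect and cells given 10 µM MG132 for full effect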
# Details: ABC-DLBCL IkBa-CBG/CBR reporter, luminescence ratio (green luciferase fused to IkBa over red control in TMD8 lymphoma cells), 4 h; activity change, negative = inhibition: at 46.1 µM (top of the series)
# How it was run: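 Concentration-response series (up to 46 uM) were applied to TMD8 dual-reporter cells for 4 h at 37C with doxycycline. Green/red ratio, after filter-overlap correction, defined %Activity; red signal alone was normalised to basal cells and zero luminescence.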
# Potency is read from the fitted curve at half-maximal effect.
Compound,Potency,"activity change, negative = inhibition"
COc1cc(C(=O)NCC(=O)NCCN2C(=O)S/C(=C\c3ccc4c(c3)OCO4)C2=O)cc(OC)c1OC,"inconclusive: 23.1 µM [falling, single point]",–
C=CCc1cccc2cc(C(=O)NC3CCCC3)c(=O)oc12,–,inconclusive: -8.6%
O=C(NCc1ccccc1)c1ccc(-c2ccc(F)cc2)o1,–,inconclusive: -0.323%
Cc1ccccc1CC1(CO)CCCN(Cc2ccccc2Cl)C1 (stereo not drawn),–,inconclusive: 5.03%
COCC(=O)n1nc(-c2ccccc2)nc1NCc1cccs1,"inconclusive: 22.4 µM [falling, single point]",–
O=C(CS(=O)(=O)c1ccccc1)N1CCCCCC1,–,inconclusive: 8.24%
Cc1ccc(S(=O)(=O)c2c(COC(=O)c3cccc(Cl)c3)c(-c3ccccc3)nn2C)cc1,–,inconclusive: 2.06%
Clc1cccc(/C=N/Nc2ncnc3ccccc23)c1,"inconclusive: 12.6 µM [falling, partial curve]",–
CCSc1nc(-c2ccccc2)c(-c2ccccc2)n1CC(O)CO (stereo not drawn),–,inconclusive: -6.5%
CN(c1ccccc1C(=O)N1CCN(c2cccc(Cl)c2)CC1)S(C)(=O)=O,–,inconclusive: -14.4%
O=c1ccc2cc(S(=O)(=O)N3CCOCC3)ccc2o1,–,inconclusive: -0.0839%
CCNc1ccccc1C(=O)O,"inconclusive: 20 µM [falling, partial curve, poor fit]",–
N#Cc1cc(C(=O)Cc2ccccc2)c[nH]1,"inconclusive: 1.26 µM [rising, full curve, poor fit]",–
O=C(O)c1ccccc1NC(=O)N1CCOCC1,"inconclusive: 11.2 µM [falling, partial curve]",–
O=C1COc2ccc(C(=O)COC(=O)c3ccccc3F)cc2N1,"inconclusive: 5.8 µM [falling, partial curve, poor fit]",–
CCc1cc2c(=O)c(-c3nc(C)cs3)coc2cc1OC(C)C(=O)NCCO (stereo not drawn),"inconclusive: 1.26 µM [rising, full curve, poor fit]",–
O=C(c1ccoc1)N1CCC2(CC1)Oc1ccc(F)cc1C(=O)C21CC(c2ccccc2)=NO1 (stereo not drawn),–,inconclusive: 9.51%
Cc1ccc(N(C)S(=O)(=O)c2ccc(C)cc2)cc1,–,inactive
COc1ccc(CCNC(=O)COC(=O)c2cc(S(=O)(=O)N3CCOCC3)ccc2C)cc1OC,–,inconclusive: -10.9%
CCCCCCN(C(=O)CCCCCN1C(=O)NC(c2ccc(-c3ccccc3)cc2)C(C(=O)OCc2ccccc2)=C1C)C(C(=O)NCCCC)C1CCCCC1 (stereo not drawn),–,inconclusive: 2.47%
CC(C(=O)NC1CCS(=O)(=O)C1)N1C(=O)/C(=C/c2ccc(Cl)cc2)SC1=S (stereo not drawn),"inconclusive: 22.4 µM [falling, single point]",–
N#Cc1c(F)cccc1NCc1cccs1,–,inconclusive: -3.78%
O=C(Nn1c(O)c(C=C2N=c3ccccc3=N2)sc1=S)c1ccc(Cl)cc1,"inconclusive: 4.61 µM [falling, full curve]",–
N#CCCN/N=C(/Cc1nc2ccccc2[nH]1)c1ccc(Cl)cc1,–,inconclusive: -4.03%
CCCCc1nc2c(C)c(N)cnc2n1Cc1cccc([N+](=O)[O-])c1,–,inactive
CN1CCN(CC#CCn2c3ccccc3c3ccccc32)CC1,–,inconclusive: 8.49%

Compound,Potency,"activity change, negative = inhibition"
Cc1c(OCC(=O)NCC2CCC(C(=O)O)CC2)ccc2c(-c3ccccc3)cc(=O)oc12 (stereo not drawn),–,inconclusive: 13.8%
COc1ccc(CNC(=O)CNC(=O)c2ccc(C(C)(C)C)cc2)cc1OC,–,inconclusive: -0.763%
O=C(CCNC(=O)c1ccc(Br)cc1)Nc1ccc(S(=O)(=O)N2CCCCC2)cc1,–,inconclusive: 5.42%
CC(c1ccccc1)N1CCn2c(nc3cc(NC(=O)NC4CCCCC4)ccc32)C1 (stereo not drawn),"inconclusive: 4.11 µM [rising, partial curve, poor fit]",–
Cc1ccc(NC(=O)CN2C(=O)C3CC=CCC3C2=O)cc1S(=O)(=O)N1CCOCC1 (stereo not drawn),–,inconclusive: 6.54%
FC(F)(F)c1ccc(NC(=S)NC2CCCCC2)cc1,–,inconclusive: 1.73%
COc1ccc2ncn(-c3ccccc3)c2c1,–,inconclusive: -1.3%
Cc1ccc(-c2cnc(C3CC3)o2)cc1S(=O)(=O)Nc1ccccc1,"inconclusive: 11.2 µM [falling, partial curve]",–
Cc1ccc(-c2ccc(S(=O)(=O)NCC3CCCO3)cc2)cc1 (stereo not drawn),–,inconclusive: 12.5%
CC(C)NC(=O)c1ccc(NC(=O)CC2SC(N3CCCCC3)=NC2=O)cc1 (stereo not drawn),–,inconclusive: 2.74%
C=CCn1c(SCC(=O)NC(=O)NCc2ccco2)nc2sc(C)c(C)c2c1=O,–,inconclusive: -0.607%
Cc1ccc(O)c(NC(=O)Cc2ccc3ccccc3c2)c1,–,inactive
CC(OC(=O)COc1ccccc1[N+](=O)[O-])C(=O)Nc1ccc(N2CCOCC2)cc1 (stereo not drawn),–,inactive
Cc1ccc(-c2c(C#N)c(N)n3c(nc4ccccc43)c2C#N)cc1,–,inconclusive: 2.35%
COc1cc(/C=C2\SC(=S)N(CCC(=O)NC3CCCC3)C2=O)cc(OC)c1OC,–,inactive
Clc1ccc(-c2nc3cnccn3c2Nc2ccc3c(c2)OCO3)cc1,–,inconclusive: -0.239%
CC(Oc1ccc2cc(-c3ccccc3)c(=O)oc2c1)C(=O)NCC1CCC(C(=O)O)CC1 (stereo not drawn),–,inactive
CC(C)C[C@H](NC(=O)c1nc[nH]c1C(=O)N(C)Cc1ccccc1)C(=O)OCc1ccccc1,–,inconclusive: -14%
O=S(=O)(NCC1CCCO1)c1cnc(Cl)c(Cl)c1 (stereo not drawn),–,inconclusive: -9.93%
C#Cc1cccc(NC(=O)Cc2cccs2)c1,–,inconclusive: 1.86%
COc1ccc(/C=N/NC(=O)c2ccn[nH]2)cc1Cn1cc([N+](=O)[O-])cn1,"inconclusive: 12.6 µM [falling, partial curve]",–
COc1ccc(Cl)cc1NC(=O)CN(C)CC(=O)Nc1cccc(S(=O)(=O)N2CCCC2)c1,–,inactive
Nc1ccc(C(=O)N/N=C/c2cn(Cc3ccccc3)c3ccccc23)cc1,"inconclusive: 35.5 µM [falling, single point]",–
COc1ccc(CNC(=O)CCC(=O)N2CCN(S(=O)(=O)c3ccc(Cl)cc3)CC2)cc1,–,inactive
Cc1cccc(C)c1NC(=O)COC(=O)c1c(C)nn(-c2ccccc2)c1C,–,inactive
CC(C)c1ccc(OCC(=O)Nc2cccc(C(=O)Nc3ccccc3C(=O)O)c2)cc1,"inconclusive: 20 µM [falling, single point]",–

# Three entries from above, arranged by length of the SMILES, largest number first:
Compound,Potency,"activity change, negative = inhibition"
COc1ccc(Cl)cc1NC(=O)CN(C)CC(=O)Nc1cccc(S(=O)(=O)N2CCCC2)c1,–,inactive
COc1ccc(CCNC(=O)COC(=O)c2cc(S(=O)(=O)N3CCOCC3)ccc2C)cc1OC,–,inconclusive: -10.9%
CC(C(=O)NC1CCS(=O)(=O)C1)N1C(=O)/C(=C/c2ccc(Cl)cc2)SC1=S (stereo not drawn),"inconclusive: 22.4 µM [falling, single point]",–

# The list continues:

Compound,Potency,"activity change, negative = inhibition"
CCN(Cc1ccccc1)c1ccc(/C=N/NC(=O)c2cccc(S(=O)(=O)N3CCOCC3)c2)cc1,–,inactive
Cc1cc(C)cc(NC(=O)C2C3C=CC4(O3)C2C(=O)N(CCCN2CCCC2)C4C(=O)NC2CCCC(C)C2C)c1 (stereo not drawn),"inconclusive: 4.47 µM [rising, full curve]",–
CCOC(=O)c1ccccc1N1C(=O)C2Sc3[nH]c(=O)sc3C(/C=C/c3ccccc3)C2C1=O (stereo not drawn),–,inconclusive: -6.5%
Cc1[nH]c2ccccc2c1C(=O)C(C)OC(=O)c1ccccc1NCCO (stereo not drawn),"inconclusive: 0.92 µM [falling, full curve]",–
COc1cccc(NC(=O)c2ccc3nc(C)sc3c2)c1,–,inconclusive: -11.7%
N#CCCN(C(=O)COc1ccc(Cl)cc1Cl)c1ccccc1,–,inactive
Cc1ccc(S(=O)(=O)/N=C(\CN2CCOCC2)N2CCOCC2)cc1,–,inconclusive: 0.975%
COc1cccc(/C=C/c2onc(C)c2S(=O)(=O)N2CCC(C(=O)N3CCC(C)CC3)CC2)c1,–,inconclusive: -10.6%
COc1cccc(C2=NOC(C(=O)NC(C)(C)C)C2)c1 (stereo not drawn),–,inactive
COc1ccc(CCN(C)Cc2cccc3ccccc23)cc1OC,–,inactive
Cc1ccc(S(=O)(=O)/C(C#N)=C/c2c(N3CCN(C)CC3)nc3c(C)cccn3c2=O)cc1,–,inconclusive: 12.6%
Cn1c(Cn2nnc3ccccc32)nnc1SCC(=O)c1ccccc1F,–,inconclusive: -0.494%
COc1ccc(/C=C(\C#N)C(=O)OCC(=O)NC2CC2)cc1,–,inconclusive: 8.11%
Nc1cc(=O)[nH]c(=O)n1CC1CC1,–,inconclusive: -15.2%
CCCc1c(C)nn(-c2ncccc2[N+](=O)[O-])c1C,–,inconclusive: -0.882%
CCCCNC(=O)C(c1ccc(OCC(=O)OC)c(C(=O)OC)c1)N(CCOC)C(=O)CCCCCN1C(=O)NC(c2ccc(-c3ccccc3)cc2)C(C(=O)OCc2ccccc2)=C1C (stereo not drawn),–,inconclusive: 5.33%
Cc1nc(NC(=O)c2ccc(F)cc2)nc2cc3c(cc12)OCO3,"inconclusive: 35.5 µM [falling, single point]",–
Cc1ccc(NCc2nnc(SCC(=O)O)n2-c2ccc(C)cc2)cc1,"inconclusive: 8.91 µM [rising, partial curve, poor fit]",–
CCc1ccc2nc3nc(C)cc(C)c3c(N)c2c1,–,inconclusive: -16.1%
CCOC(=O)C(=NC(C)(C)C)NNc1cc(Cl)ccc1Cl,–,inconclusive: -0.494%
CCN(CC)C(=O)c1n[nH]c(=O)c2ccccc12,–,inconclusive: 8.48%
Cc1nc2ccccc2c2c1C(=O)N(c1ccc(C(=O)O)cc1)C2=O,–,inconclusive: -16.1%
CCCc1nc(N)c(C#N)c(-c2ccco2)c1CC,–,inconclusive: 12.4%
COc1cccc(C2C([N+](=O)[O-])=C(N)Oc3cc(C)oc(=O)c32)c1 (stereo not drawn),–,inactive
Cc1ccc(C(=O)Nc2nc(=O)n(C)s2)cc1,"inconclusive: 10 µM [falling, partial curve, poor fit]",–
Nc1nc(=S)c2ncn([C@@H]3O[C@H](CO)[C@@H](O)[C@H]3O)c2[nH]1,"inconclusive: 8.2 µM [falling, partial curve, poor fit]",–

# As entered above.
# activity change, negative = inhibition, Cc1nc2ccccc2c2c1C(=O)N(c1ccc(C(=O)O)cc1)C2=O reads inconclusive: -16.1%
# activity change, negative = inhibition, Cn1c(Cn2nnc3ccccc32)nnc1SCC(=O)c1ccccc1F reads inconclusive: -0.494%
